# Test system: CEM cells HIV-1 protection, formazan growth assay
# Assay: NCI AIDS Antiviral Assay
# Conditions: for IC50: measured here: growth of uninfected CEM cells
# Summary of the method: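 Screen of anti-HIV-1 activity in human CEM cells using a formazan-based growth measurement at five drug concentrations. Hits with 50% or greater protection were repeated, and confirmation required reproducible complete protection.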
SMILES,EC50 [µM],IC50 [µM]
O=C1Cc2c([nH]c3ccc(F)cc23)-c2ccccc2N1,> 200,9.77
Cc1ccc2[nH]c3c(c2c1)CC(=O)Nc1ccccc1-3,> 200,> 200
